US20160008366A1, “BTK INHIBITORS FOR THE TREATMENT OF CNS MALIGNANCIES” (Pharmacyclics LLC, priority 2014, published 2016)
Some entries share one result that the patent states for a list of compounds. For at least one compound, name, drawing or mass did not settle the structure.

Assay: Short-term storage stability in human CSF at −70±5° C.
Format: in vitro ADME
Conditions: Low, Medium and High QCs

SMILES: Nc1ncnc2c1c(-c1ccc(Oc3ccccc3)cc1)nn2[C@@H]1CCCN(C(=O)C(O)CO)C1 (stereo partly shown) [PCI-45227]
- time stable in human CSF at freezer temperature: at least 7 days
